Measured values: PubChem BioAssay AID2685 (National Center for Advancing Translational Sciences (NCATS), 2010)
The list shows a part of the results. The main result of the screen is listed elsewhere. These columns were measured beside it and carry no call. Most of these compounds were active or inconclusive in the main read-out, so they are no random draw. The note in brackets gives the kind of curve behind each potency; many fits are weak.

Assay: qHTS Assay for Lipid Storage Modulators in Drosophila S3 Cells;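 on cell number change: cells counted by Cell Tracker Red CMTPX staining in the red channel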
Conditions: BODIPY lipid droplet fluorescence, 18-24 h; for cell number change: measured here: cell count max response, cells fed with added oleic acid
Summary of the method: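 Drosophila S3 cells got compounds at several concentrations plus oleic acid (400 uM solution). Laser-scanning cytometry with 488 nm excitation read lipid droplets at 500-530 nm and cells at 575-640 nm. Percent activity was relative to 20 uM Triacsin C.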

[1] = measured here: lipid fluorescence (Fed channel) AC50, cells fed with added oleic acid
[2] = measured here: cell number channel AC50, cells fed with added oleic acid

Structure (SMILES) | cell number change [%] | AC50 [1] | AC50 [2]
Cc1onc(-c2ccccc2)c1C(=O)NNC(=O)c1ccccc1 | 13.7 | 2.59 µM [rising, partial curve] | 
Cc1ccc2c(C)c(C(=O)N(C)C(C)c3ccon3)oc2c1C (stereo not drawn) |  | 14.6 µM [rising, partial curve] | 
CN(C)/C=N/S(=O)(=O)c1cccn1-c1ncc(C(F)(F)F)cc1Cl |  | 2.06 µM [falling, partial curve] | 0.00461 µM [falling, full curve, poor fit]
COc1ccc(CNC(=O)CSc2ncnc3ccccc23)cc1OC | -3.79 |  | 0.0517 µM [falling, full curve, poor fit]
O=C(CCCN1C(=O)c2cccnc2C1=O)N1CC(=O)N(CCc2ccccc2)C(=O)C1 | -12.1 | 11.6 µM [falling, partial curve, poor fit] | 
Cc1ccc(C(=O)NNC(=O)CSc2nnc(CNc3ccc(F)cc3)n2C)cc1 | 23.2 |  | 
Cc1csc(Nc2nc(N)c(C(=O)Nc3cc(Cl)ccc3F)o2)n1 | 1.41 | 0.13 µM [rising, full curve, poor fit] | 
CC(=O)Nc1ccc(Oc2ncccn2)c(Cl)c1 | -19.1 |  | 
S=C(c1ccc(OCc2ccccc2)cc1)N1CCCC1 | -46.8 |  | 20.6 µM [falling, single point]
Cc1noc(C)c1COC(=O)c1ccc(S(=O)(=O)N2CCCCC2)cc1 |  | 6.51 µM [rising, single point] | 2.91 µM [rising, single point]
COc1ccc(C(CCN2CCCC(C)C2)c2c(OC)cc(OC)c3c(-c4ccccc4)cc(=O)oc23)cc1 (stereo not drawn) | -61 | 29.1 µM [falling, single point] | 25.9 µM [falling, single point]
O=C(CSc1nnc(CNc2ccc(F)cc2)n1Cc1ccccc1)N1CCOCC1 | -2.03 | 0.731 µM [falling, full curve] | 0.731 µM [falling, full curve]
O=C(C1CCN(Cc2nc(Cc3cccc(F)c3)no2)CC1)N1CCOCC1 | -0.125 | 6.51 µM [falling, single point] | 
CC(=O)Oc1cccc(N2C(=O)c3cccc4c([N+](=O)[O-])ccc(c34)C2=O)c1 | -32.7 | 6.51 µM [falling, full curve] | 14.6 µM [falling, partial curve, poor fit]
O=C(NCCS(=O)(=O)NCc1ccco1)c1ccccc1 | -29.3 | 3.26 µM [falling, partial curve, poor fit] | 6.51 µM [falling, single point]
O=C1Nc2ccc(Cl)cc2/C1=C/C1CC=CCC1 (stereo not drawn) | -58.9 | 20.6 µM [falling, single point] | 20.6 µM [falling, single point]
CCN1CCN(c2nc3sc4c(c3c3ncnn23)CC(C)CC4)CC1 (stereo not drawn) | -0.845 | 0.58 µM [falling, full curve, poor fit] | 
CCN(CC)CCCn1c2c(c(SCC(=O)Nc3cccc(C)c3C)nc1=O)CCC2 | 6.5 |  | 
COc1ccc(CCNC(=O)C(=O)Nc2ccc3nc4n(c(=O)c3c2)CCCCC4)cc1OC | -28.4 | 23.1 µM [falling, single point] | 
O=C(Nc1ccccc1Cl)c1ccc2c(c1)N(Cc1ccc(F)cc1)C(=O)CS2=O (stereo not drawn) |  | 6.51 µM [rising, single point] | 

Structure (SMILES) | cell number change [%] | AC50 [1] | AC50 [2]
Cc1csc2nc(O)c(C(=O)NCC3CCCO3)c(=O)n12 (stereo not drawn) | -76.7 |  | 23.1 µM [falling, single point]
COc1cc(/C=N/NC(=S)Nc2cccnc2)cc(OC)c1OC |  | 0.58 µM [rising, single point] | 
NS(=O)(=O)c1cc(C(=O)NCC2CCCCC2)ccc1Cl | 15.7 | 29.1 µM [rising, single point] | 
COc1ccc(C2C(C(=O)OCC(=O)NC(C)(C)C)CCC(=O)N2c2ccc(C)cc2)cc1OC (stereo not drawn) | 59.8 |  | 
C/C(=N\NC(=O)c1c(Cl)c(C)nn1C)c1cccc(NC(=O)c2cccc(F)c2)c1 | -44.8 | 7.94 µM [falling, partial curve] | 20 µM [falling, single point]
CC1CN(Cc2ccccc2)c2nc3c(c(=O)n(CC(N)=O)c(=O)n3C)n2C1 (stereo not drawn) |  | 6.51 µM [rising, single point] | 
CCc1cccc(NC(=O)Cn2c(=O)oc3cc(S(=O)(=O)N4CCOCC4)ccc32)c1 |  | 29.1 µM [falling, single point] | 
COc1ccc(CCN(C)c2ccc(C(N)=O)cc2[N+](=O)[O-])cc1OC | 48.8 |  | 1.84 µM [rising, full curve, poor fit]
CCn1cc(/C=N/NC(=O)c2ccc(C#N)cc2F)c2ccccc21 | 38.4 | 0.291 µM [rising, partial curve, poor fit] | 14.6 µM [rising, single point]
CCC(CC)C(=O)Nc1ccc(C(=O)c2ccccc2)cc1 | 38.7 | 3.26 µM [rising, full curve] | 3.66 µM [rising, full curve]
Cc1ccc(S(=O)(=O)Nc2ccc3c(c2)CCC3)cc1C | -46.1 | 29.1 µM [falling, single point] | 29.1 µM [falling, single point]
COc1ccc(-c2cc(-c3ccccc3)nc(Cl)n2)cc1OC | -5.19 | 29.1 µM [falling, single point] | 
O=C(Nc1ccc(N2CCN(C(=O)c3ccc(Cl)cc3)CC2)cc1)c1ccc2c(c1)OCCO2 | -14 | 5.8 µM [rising, partial curve] | 
O=C(CSc1nnnn1C1CCCC1)c1ccc2c(c1)OCCO2 |  | 0.517 µM [falling, single point] | 
COc1ccc(/C=N/NC(=O)c2ccccc2O)cc1COc1ccccn1 | -6.34 | 5.17 µM [falling, partial curve] | 
COc1ccc(C2Nc3cccc4cccc(c34)N2)cc1Br |  | 6.51 µM [falling, single point] | 
CN(C)/N=C/c1cc([N+](=O)[O-])ccc1O | -19.5 | 0.0291 µM [falling, full curve, poor fit] | 
COc1ccc(C(=O)N2CC(=O)Nc3ccc(C)cc3C2c2ccccc2)cc1 (stereo not drawn) | -2.78 |  | 
Brc1ccc(OCc2nc(-c3ccccn3)n[nH]2)cc1 |  | 6.51 µM [rising, single point] | 
C/C(CC(=O)Nc1ccc(C)c(Cl)c1)=N\NC(=O)c1ccncc1 | -27.9 |  | 

Structure (SMILES) | cell number change [%] | AC50 [1] | AC50 [2]
O=C(Cc1ccc(-n2c(=O)[nH]c3ccsc3c2=O)cc1)N1CCN(c2ccc(Cl)cc2)CC1 | 10.9 | 16.4 µM [rising, single point] | 0.517 µM [rising, full curve]
CCCCCCNC(=O)CC(NS(=O)(=O)c1ccc(NC(C)=O)cc1)C(C)C (stereo not drawn) | 11 |  | 
Nc1nc(SCC(=O)Nc2ccccc2)nc2nc3c(cc12)CCCC3 | 1.65 | 4.61 µM [rising, single point] | 
COc1ccc(OC(C)C(=O)N2CCc3ccccc3C2)cc1 (stereo not drawn) | 6.34 | 23.1 µM [rising, partial curve] | 
C=CCNC(=S)N/N=C/c1ccccc1OCCOc1ccccc1 | 11.4 | 0.58 µM [rising, full curve, poor fit] | 
CCn1c(COc2ccc(OC)cc2)nnc1SCc1nc2ccccc2c(=O)[nH]1 | 70.1 | 23.1 µM [rising, single point] | 23.1 µM [rising, single point]
CC(=O)Nn1cnc2c(c1=O)C1(CCCCC1)Cc1ccccc1-2 | 124 | 29.1 µM [rising, single point] | 29.1 µM [rising, single point]
CSc1ccccc1NC(=O)c1ccc(N2CC3CC(C2)c2cccc(=O)n2C3)c(NC(=O)c2ccncc2)c1 (stereo not drawn) | 12.5 | 6.51 µM [falling, single point] | 
C[C@H](O)c1[nH]c2cc(F)ccc2c1[C@H](C)O | 7.77 |  | 
CCOC(=O)N1CCN(CC(O)c2ccc3cc[nH]c3c2)CC1 (stereo not drawn) | -30.8 |  | 6.51 µM [falling, single point]
Nc1ccc(S(=O)(=O)NC2=NCCCCC2)cc1N | -12 | 6.51 µM [rising, single point] | 
Cc1cc(=O)[nH]c(SCC2COC3(CCCCC3)O2)n1 (stereo not drawn) | 15 | 1.3 µM [falling, full curve, poor fit] | 
CC1CCN(S(=O)(=O)c2ccc(NC(=O)Cn3nnc(-c4ccccc4F)n3)cc2)CC1 | -9.35 | 0.411 µM [rising, full curve] | 
CN(Cc1ccc(Br)cc1)C(=O)CCN1C(=O)c2cccc([N+](=O)[O-])c2C1=O | 8.7 | 32.6 µM [falling, partial curve] | 
O=C(CN1C(=O)NC2(CCCC2)C1=O)Nc1cc(Cl)ccc1N1CCOCC1 | 16.5 |  | 
COc1cc2c(cc1NC(=O)CSc1ccc(Cl)cc1)oc1ccccc12 | -0.603 | 1.16 µM [rising, full curve] | 
Cc1ccccc1N1CCN(C2CCCN(C(=O)CCN3CCCCO3)C2)CC1 (stereo not drawn) | -13.9 | 29.1 µM [rising, single point] | 
Cc1ccc(S(=O)(=O)NC(CC(=O)N2CCc3ccccc32)c2ccco2)cc1 (stereo not drawn) | 8.85 | 14.6 µM [rising, single point] | 
O=C(NNC(=S)NCc1ccccc1)c1ccccc1OC(F)F | 15.3 | 2.59 µM [rising, full curve] | 

Looked up by structure from above, four records:
Structure (SMILES) | cell number change [%] | AC50 [1] | AC50 [2]
CN(C)/N=C/c1cc([N+](=O)[O-])ccc1O | -19.5 | 0.0291 µM [falling, full curve, poor fit] | 
COc1ccc(C(=O)N2CC(=O)Nc3ccc(C)cc3C2c2ccccc2)cc1 (stereo not drawn) | -2.78 |  | 
CSc1ccccc1NC(=O)c1ccc(N2CC3CC(C2)c2cccc(=O)n2C3)c(NC(=O)c2ccncc2)c1 (stereo not drawn) | 12.5 | 6.51 µM [falling, single point] | 
O=C1Nc2ccc(Cl)cc2/C1=C/C1CC=CCC1 (stereo not drawn) | -58.9 | 20.6 µM [falling, single point] | 20.6 µM [falling, single point]
